{"source": "PubChem BioAssay AID1259424 (University of Nebraska Medical Center, 2018)", "screen": "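Rank knockdowns across the genome by resemblance to the KSR1 depletion profile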 (primary screen)", "cells": "human HCT116 colon cancer cells", "knock-down reagent": "siRNA pool against human genes, 50 nM", "measured": "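Six signature mRNAs by branched-DNA multiplex assay, scaled to two housekeeping genes and non-targeting median, log2; matched to mean KSR1 knockdown profile by Pearson correlation and euclidean distance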", "reading the numbers": "mean correlation with KSR1 profile: higher = expression change more like KSR1 knockdown; mean distance from KSR1 profile: higher = expression change less like KSR1 knockdown", "note": "In all, the deposit lists about 14,000 reagents; this is a part drawn at random. 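Higher correlation or smaller distance means closer resemblance to KSR1 loss; control wells, including KSR1 knockdowns, recur on many plates.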 Not all columns of the deposit are shown. Reagent sequences are not shown. Not given: the time to read-out."}
{"gene knocked down": "NEIL3 (GeneID 55247)", "mean correlation with KSR1 profile": -0.426, "mean distance from KSR1 profile": 1.15}
{"gene knocked down": "TAGLN2 (GeneID 8407)", "mean correlation with KSR1 profile": 0.309, "mean distance from KSR1 profile": 2.41}
{"gene knocked down": "SH2D4A (GeneID 63898)", "mean correlation with KSR1 profile": -0.576, "mean distance from KSR1 profile": 1.6}
{"gene knocked down": "CD276 (GeneID 80381)", "mean correlation with KSR1 profile": 0.681, "mean distance from KSR1 profile": 2.06}
{"gene knocked down": "CHGB (GeneID 1114)", "mean correlation with KSR1 profile": 0.484, "mean distance from KSR1 profile": 1.41}
{"gene knocked down": "SLC24A3 (GeneID 57419)", "mean correlation with KSR1 profile": 0.58, "mean distance from KSR1 profile": 5.14}

Laid out differently: results already given.
CHGB (GeneID 1114)
- mean correlation with KSR1 profile: 0.484
- mean distance from KSR1 profile: 1.41

SLC24A3 (GeneID 57419)
- mean correlation with KSR1 profile: 0.58
- mean distance from KSR1 profile: 5.14

Additional entries follow.
{"gene knocked down": "ELOVL6 (GeneID 79071)", "mean correlation with KSR1 profile": 0.167, "mean distance from KSR1 profile": 1.3}
{"gene knocked down": "TAFA5 (GeneID 25817)", "mean correlation with KSR1 profile": -0.377, "mean distance from KSR1 profile": 2.07}
{"gene knocked down": "PTGS2 (GeneID 5743)", "mean correlation with KSR1 profile": 0.394, "mean distance from KSR1 profile": 0.941}
{"gene knocked down": "BRPF1 (GeneID 7862)", "mean correlation with KSR1 profile": -0.024, "mean distance from KSR1 profile": 2}
{"gene knocked down": "TAS2R7 (GeneID 50837)", "mean correlation with KSR1 profile": 0.569, "mean distance from KSR1 profile": 2.16}
{"gene knocked down": "TOB2 (GeneID 10766)", "mean correlation with KSR1 profile": 0.181, "mean distance from KSR1 profile": 2.35}
